Reference: PubChem BioAssay AID602196 (INSERM, 2012)
Here is a random part of about 23,000 reagents. Of all reagents, 455 (2%) got an active call. 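Active includes both protection and sensitisation; some change values fall well beyond the stated -50 to +50 range.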 Unmarked entries are inactive. The numbers tell different reagents against one gene apart. Further read-outs or replicates are left out here. Not given: the amount of reagent.

- Screen: 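Modifiers of cisplatin sensitivity in A549 cells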
- Cells: human A549 lung cancer cells
- Reagent: siRNA pair against human genes
- Duration: 48 h transfection before cisplatin; time from cisplatin to read-out not stated
- Conditions: cisplatin at a dose killing half of control-siRNA cells; exact dose and duration not given
- Measured: 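Shift in cisplatin death relative to control siRNA, from -50 (all cells die) to +50 (no cells die); siRNAs harmful on their own scored 0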
- Reading the numbers: two-siRNA summed score (-2 to +2): higher = both siRNAs protect from cisplatin killing; -2 means both sensitise; mean protection from cisplatin (shift in death): higher = protection from cisplatin killing
- Active means: 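Each siRNA scores 0 if harmful alone by LDH or WST-1, otherwise +1 if it reduces and -1 if it increases cisplatin killing; a gene is active when both siRNAs agree (sum +2 or -2)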
- Meaning of the calls: active = both siRNAs shift cisplatin killing the same way; inactive = no consistent shift, or siRNA harmful alone

LOC400757 → two-siRNA summed score (-2 to +2): 0; mean protection from cisplatin (shift in death) (%): 6.7
KLK11 → two-siRNA summed score (-2 to +2): 0; mean protection from cisplatin (shift in death) (%): -0.3
KLHL31 → two-siRNA summed score (-2 to +2): 0; mean protection from cisplatin (shift in death) (%): 8.5
ANKRD16 → two-siRNA summed score (-2 to +2): 2 (active); mean protection from cisplatin (shift in death) (%): 10
CLDN18 → two-siRNA summed score (-2 to +2): 1; mean protection from cisplatin (shift in death) (%): 9.2
GRP #1 → two-siRNA summed score (-2 to +2): 0; mean protection from cisplatin (shift in death) (%): 5
GRP #2 → two-siRNA summed score (-2 to +2): 1; mean protection from cisplatin (shift in death) (%): 6.9
LOC90835 → two-siRNA summed score (-2 to +2): -1; mean protection from cisplatin (shift in death) (%): -6
LOC389322 → two-siRNA summed score (-2 to +2): 0; mean protection from cisplatin (shift in death) (%): 1
LOC400208 → two-siRNA summed score (-2 to +2): 0; mean protection from cisplatin (shift in death) (%): 6
FAM163A → two-siRNA summed score (-2 to +2): 0; mean protection from cisplatin (shift in death) (%): 4.5
LOC120872 → two-siRNA summed score (-2 to +2): -1; mean protection from cisplatin (shift in death) (%): -4.4

Next part, starting with the last 2 of the part before.
FAM163A → two-siRNA summed score (-2 to +2): 0; mean protection from cisplatin (shift in death) (%): 4.5
LOC120872 → two-siRNA summed score (-2 to +2): -1; mean protection from cisplatin (shift in death) (%): -4.4
CCNJL → two-siRNA summed score (-2 to +2): 0; mean protection from cisplatin (shift in death) (%): 2.7
PUS10 → two-siRNA summed score (-2 to +2): 0; mean protection from cisplatin (shift in death) (%): -3.5
LRRC45 → two-siRNA summed score (-2 to +2): 0; mean protection from cisplatin (shift in death) (%): 18.3
LIFR → two-siRNA summed score (-2 to +2): 0; mean protection from cisplatin (shift in death) (%): -8.9
RP1L1 → two-siRNA summed score (-2 to +2): 0; mean protection from cisplatin (shift in death) (%): 5.6
SAXO6 → two-siRNA summed score (-2 to +2): 0; mean protection from cisplatin (shift in death) (%): 1.4
LOC388743 → two-siRNA summed score (-2 to +2): 2 (active); mean protection from cisplatin (shift in death) (%): 27.9
GSTT1 → two-siRNA summed score (-2 to +2): 0; mean protection from cisplatin (shift in death) (%): 11.1
GTPBP8 → two-siRNA summed score (-2 to +2): 0; mean protection from cisplatin (shift in death) (%): 7.8
